Where two headings read alike, the source gives them in different places. Results are given in words; binding and its absence hold for the method and conditions named. For some assays here: In cells and extracts the contact can be indirect. For some assays here: Where a sequence is shown, tags or fusion partners need not be part of it.
What was measured:
(FLAG)3-Sox2 [1] = target: (FLAG)3-Sox2 (UniProt P48432); assay: fluorescence correlation spectroscopy
(FLAG)3-Oct4 = (FLAG)3-Oct4 (UniProt P20263); assay: fluorescence correlation spectroscopy
mCherry-Sox2 = mCherry-Sox2 (UniProt P48432); assay: fluorescence cross-correlation spectroscopy
mCherry-Oct4 = mCherry-Oct4 (UniProt P20263); assay: fluorescence cross-correlation spectroscopy
mCherry-Nanog [2] = target: mCherry-Nanog (UniProt Q80Z64); assay: fluorescence cross-correlation spectroscopy
mCherry-Nanog [3] = target: mCherry-Nanog (UniProt Q80Z64); assay: fluorescence cross-correlation spectroscopy; remark: listed apart in the source
(FLAG)3-Nanog = target: T1, (FLAG)3-Nanog (UniProt Q80Z64); assay: co-IP
T1 sequence: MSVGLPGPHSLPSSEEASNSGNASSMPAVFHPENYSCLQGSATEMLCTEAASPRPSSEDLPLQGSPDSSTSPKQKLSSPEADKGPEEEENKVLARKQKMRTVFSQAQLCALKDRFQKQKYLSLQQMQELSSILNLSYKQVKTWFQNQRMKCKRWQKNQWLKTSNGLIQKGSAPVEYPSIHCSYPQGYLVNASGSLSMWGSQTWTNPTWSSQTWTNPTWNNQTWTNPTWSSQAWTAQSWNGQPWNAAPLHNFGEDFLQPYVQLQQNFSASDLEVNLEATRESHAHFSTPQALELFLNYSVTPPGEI

Amino acid sequences for entries named in this document (tags omitted).
UniProt P48432: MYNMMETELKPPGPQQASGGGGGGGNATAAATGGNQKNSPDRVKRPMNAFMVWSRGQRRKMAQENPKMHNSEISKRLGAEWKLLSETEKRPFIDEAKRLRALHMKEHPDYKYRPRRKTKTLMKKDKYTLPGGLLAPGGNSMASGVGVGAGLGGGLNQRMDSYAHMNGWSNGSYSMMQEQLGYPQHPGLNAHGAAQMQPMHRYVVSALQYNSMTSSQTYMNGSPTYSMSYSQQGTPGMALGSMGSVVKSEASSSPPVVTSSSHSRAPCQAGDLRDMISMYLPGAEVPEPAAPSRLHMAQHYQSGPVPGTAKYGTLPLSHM
UniProt P20263: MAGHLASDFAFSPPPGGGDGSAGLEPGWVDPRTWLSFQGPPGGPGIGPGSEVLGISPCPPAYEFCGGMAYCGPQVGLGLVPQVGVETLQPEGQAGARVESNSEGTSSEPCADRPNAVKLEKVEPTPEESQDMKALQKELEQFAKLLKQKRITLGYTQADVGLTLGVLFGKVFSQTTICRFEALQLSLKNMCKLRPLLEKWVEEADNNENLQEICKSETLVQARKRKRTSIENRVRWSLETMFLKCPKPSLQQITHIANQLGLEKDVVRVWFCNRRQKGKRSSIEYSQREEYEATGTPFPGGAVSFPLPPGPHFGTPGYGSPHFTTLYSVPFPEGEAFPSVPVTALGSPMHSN

(FLAG)3-Sox2 [4] = target: (FLAG)3-Sox2 (UniProt P48432); assay: co-IP

Measured: binding

GFP-Nanog-W10A (from UniProt Q80Z64)
no binding: (FLAG)3-Sox2 [1] | (FLAG)3-Oct4 | mCherry-Sox2 | mCherry-Oct4 | mCherry-Nanog [2] | mCherry-Nanog [3] | (FLAG)3-Nanog | (FLAG)3-Sox2 [4]

— article doi:10.1101/2020.06.24.169185
